This passage reports binding results from patent US6479459.

Sequences of proteins named here, by UniProt entry; tags and fusion partners are left off. A change or cut given only in a name is not applied to a line headed by its entry.
UniProt P52799: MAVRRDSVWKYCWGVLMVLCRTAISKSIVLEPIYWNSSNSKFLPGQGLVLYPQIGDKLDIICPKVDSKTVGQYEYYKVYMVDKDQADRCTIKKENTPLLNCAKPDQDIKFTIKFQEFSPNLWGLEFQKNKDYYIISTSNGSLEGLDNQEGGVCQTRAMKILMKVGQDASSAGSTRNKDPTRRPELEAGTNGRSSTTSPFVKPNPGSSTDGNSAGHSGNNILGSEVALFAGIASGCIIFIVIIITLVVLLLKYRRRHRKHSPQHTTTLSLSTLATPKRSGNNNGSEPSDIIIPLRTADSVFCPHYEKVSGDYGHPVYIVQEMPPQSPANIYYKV
UniProt P09759: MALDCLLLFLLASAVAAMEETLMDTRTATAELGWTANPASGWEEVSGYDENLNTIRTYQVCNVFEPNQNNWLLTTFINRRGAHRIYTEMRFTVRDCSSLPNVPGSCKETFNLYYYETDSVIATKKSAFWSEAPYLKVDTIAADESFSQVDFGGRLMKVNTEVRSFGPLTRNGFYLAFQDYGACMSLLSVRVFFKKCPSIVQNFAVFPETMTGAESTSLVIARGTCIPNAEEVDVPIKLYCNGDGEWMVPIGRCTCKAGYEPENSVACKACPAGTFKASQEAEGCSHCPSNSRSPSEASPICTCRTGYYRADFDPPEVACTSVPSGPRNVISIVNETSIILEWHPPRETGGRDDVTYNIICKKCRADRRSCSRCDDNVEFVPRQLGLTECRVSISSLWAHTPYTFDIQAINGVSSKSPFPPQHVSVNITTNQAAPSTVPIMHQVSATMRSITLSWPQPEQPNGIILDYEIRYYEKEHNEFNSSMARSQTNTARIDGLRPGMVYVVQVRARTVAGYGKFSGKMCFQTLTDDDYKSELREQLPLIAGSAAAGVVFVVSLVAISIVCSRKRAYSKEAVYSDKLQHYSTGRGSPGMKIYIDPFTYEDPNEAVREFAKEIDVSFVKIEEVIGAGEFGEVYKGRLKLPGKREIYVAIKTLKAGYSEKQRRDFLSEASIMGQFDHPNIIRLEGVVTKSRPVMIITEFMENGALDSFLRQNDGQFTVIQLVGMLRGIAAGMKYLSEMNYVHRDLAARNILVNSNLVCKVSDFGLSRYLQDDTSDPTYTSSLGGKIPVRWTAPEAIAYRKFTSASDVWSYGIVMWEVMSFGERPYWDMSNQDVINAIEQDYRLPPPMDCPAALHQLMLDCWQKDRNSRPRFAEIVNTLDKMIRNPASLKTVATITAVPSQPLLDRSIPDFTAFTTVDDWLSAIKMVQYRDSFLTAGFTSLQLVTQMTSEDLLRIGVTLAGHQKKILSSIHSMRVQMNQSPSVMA

No constants are given. Whether binding was seen depends on the method and setting. Some results given as binding are weak or reduced against the parent protein; the word gives no strength.

The assay concerns the target human LERK-5 (recombinant, full length, expressed on the surface of transfected CV1-EBNA-1 cells) (human) (UniProt P52799). Kind of assay: Refers to the cell binding assay of example 4 (elk/Fc on cells expressing LERK-5).

As for “soluble elk/Fc fusion protein (rat elk extracellular domain fused to human IgG1 Fc) (from UniProt P09759 18-540; P01857 99-330)”, the binding entry is listed as “binds”.
